# No constants are given. Whether binding was seen depends on the method and setting. In cells and extracts the contact can be indirect. Some entries that bind do so weakly or less than the wild type.
# The chains behind the UniProt entries cited, without tags or fusion partners.
# UniProt P60484: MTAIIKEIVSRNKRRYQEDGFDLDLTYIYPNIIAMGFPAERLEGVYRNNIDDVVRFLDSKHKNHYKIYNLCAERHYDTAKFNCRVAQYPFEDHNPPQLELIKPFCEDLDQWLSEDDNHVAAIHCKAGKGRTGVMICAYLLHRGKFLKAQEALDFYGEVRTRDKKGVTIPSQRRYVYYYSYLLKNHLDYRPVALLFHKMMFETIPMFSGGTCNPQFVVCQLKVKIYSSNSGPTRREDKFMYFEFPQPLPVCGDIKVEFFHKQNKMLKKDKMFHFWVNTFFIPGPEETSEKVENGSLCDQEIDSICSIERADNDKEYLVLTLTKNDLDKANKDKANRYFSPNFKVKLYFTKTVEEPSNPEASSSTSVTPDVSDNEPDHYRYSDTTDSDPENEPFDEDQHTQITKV
# Molecular target: FLAG-PTEN (UniProt P60484)
# Assay: co-IP; total protein from oe-PTEN or oe-NC cells incubated with Anti-Flag M2 Affinity Gel at 4 C overnight, washed with TBS; western blot for Flag and TOB1
binder,measurement,value
"transducer of ERBB2.1 (TOB1) (protein, UniProt P50616 1-345) MQLEIQVALNFIISYLYNKLPRRRVNIFGEELERLLKKKYEGHWYPEKPYKGSGFRCIHIGEKVDPVIEQASKESGLDIDDVRGNLPQDLSVWIDPFEVSYQIGEKGPVKVLYVDDNNENGCELDKEIKNSFNPEAQVFMPISDPASSVSSSPSPPFGHSAAVSPTFMPRSTQPLTFTTATFAATKFGSTKMKNSGRSNKVARTSPINLGLNVNDLLKQKAISSSMHSLYGLGLGSQQQPQQQQQPAQPPPPPPPPQQQQQQKTSALSPNAKEFIFPNMQGQGSSTNGMFPGDSPLNLSPLQYSNAFDVFAAYGGLNEKSFVDGLNFSLNNMQYSNQQFQPVMAN",binding,binds

# From publication PMC8824903
